Data taken from article PMC8081163.
No constants are given. Whether binding was seen depends on the method and setting. In cells and extracts the contact can be indirect. Some binding calls cover weakened binding; strength is not graded here.

The chains behind the UniProt entries cited, without tags or fusion partners. Where a name states a change or a piece, a line headed by the entry shows the natural chain unless it says otherwise.
UniProt Q61656: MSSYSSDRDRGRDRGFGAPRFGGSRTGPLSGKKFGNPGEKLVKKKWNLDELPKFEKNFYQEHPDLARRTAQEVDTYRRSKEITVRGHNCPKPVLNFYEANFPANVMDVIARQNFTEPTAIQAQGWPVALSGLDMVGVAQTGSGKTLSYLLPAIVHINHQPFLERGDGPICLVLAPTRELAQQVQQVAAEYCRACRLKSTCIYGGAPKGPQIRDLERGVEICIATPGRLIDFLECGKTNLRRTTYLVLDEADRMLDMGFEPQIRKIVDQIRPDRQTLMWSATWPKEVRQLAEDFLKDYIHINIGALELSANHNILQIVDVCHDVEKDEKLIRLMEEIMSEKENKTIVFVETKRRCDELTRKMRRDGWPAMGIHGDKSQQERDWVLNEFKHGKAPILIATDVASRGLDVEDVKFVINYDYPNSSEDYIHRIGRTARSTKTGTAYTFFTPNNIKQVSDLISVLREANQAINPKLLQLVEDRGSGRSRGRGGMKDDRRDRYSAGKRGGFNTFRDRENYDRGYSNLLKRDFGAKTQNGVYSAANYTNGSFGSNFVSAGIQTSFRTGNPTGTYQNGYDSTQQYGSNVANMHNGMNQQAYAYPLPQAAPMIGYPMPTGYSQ
UniProt Q8C3P7: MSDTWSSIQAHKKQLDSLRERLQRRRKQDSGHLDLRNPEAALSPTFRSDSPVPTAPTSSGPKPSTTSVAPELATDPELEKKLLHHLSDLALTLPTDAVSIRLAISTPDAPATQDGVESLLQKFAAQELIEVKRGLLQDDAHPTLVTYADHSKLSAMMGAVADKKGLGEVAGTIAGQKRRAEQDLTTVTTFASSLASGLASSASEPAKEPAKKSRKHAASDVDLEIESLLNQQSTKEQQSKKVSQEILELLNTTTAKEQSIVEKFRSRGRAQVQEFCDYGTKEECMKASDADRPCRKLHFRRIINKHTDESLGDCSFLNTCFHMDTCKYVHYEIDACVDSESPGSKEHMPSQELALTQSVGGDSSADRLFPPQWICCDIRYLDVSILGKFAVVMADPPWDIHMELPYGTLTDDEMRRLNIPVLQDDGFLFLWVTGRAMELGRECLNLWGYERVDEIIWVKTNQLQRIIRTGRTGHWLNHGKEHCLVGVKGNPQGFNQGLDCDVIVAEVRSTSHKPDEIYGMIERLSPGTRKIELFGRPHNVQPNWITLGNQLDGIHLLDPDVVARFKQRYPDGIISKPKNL

Columns and labels:
[1] = target: DDX5 (endogenous, mouse cells) (mouse (endogenous in MEFs NIH/3T3 and macrophages J774A.1)) (UniProt Q61656); assay: co-IP
[2] = target: METTL3 (endogenous, mouse cells) (mouse (endogenous in MEFs NIH/3T3 and macrophages J774A.1)) (UniProt Q8C3P7); assay: co-IP; endogenous METTL3 and METTL14 in MEFs transfected with doses of DDX5 siRNA or EGF-DDX5 plasmid, then VSV (MOI = 10) for 8 h; NP40 lysis; IP with rabbit METTL3 antibody or IgG; western blot

binding [1] | Molecule | binding [2]
binds | METTL3 (endogenous, mouse cells) (from UniProt Q8C3P7 1-580) | 
 | METTL14 (endogenous, MEFs) (protein, UniProt Q3UIK4 1-456) MDSRLQEIRERQKLRRQLLAQQLGAESADSIGAVLNSKDEQREIAETRETCRASYDTSAPNSKRKCLDEGETDEDKVEEYKDELEMQQEEENLPYEEEIYKDSSTFLKGTQSLNPHNDYCQHFVDTGHRPQNFIRDVGLADRFEEYPKLRELIRLKDELIAKSNTPPMYLQADIEAFDIRELTPKFDVILLEPPLEEYYRETGITANEKCWTWDDIMKLEIDEIAAPRSFIFLWCGSGEGLDLGRVCLRKWGYRRCEDICWIKTNKNNPGKTKTLDPKAVFQRTKEHCLMGIKGTVKRSTDGDFIHANVDIDLIITEEPEIGNIEKPVEIFHIIEHFCLGRRRLHLFGRDSTIRPGWLTVGPTLTNSNYNAETYASYFSAPNSYLTGCTEEIERLRPKSPPPKSKSDRGGGAPRGGGRGGTSAGRGRERNRSNFRGERGGFRGGRGGTHRGGFTPR | binds
